Data as given in article PMC10132990.

Protein sequences, listed by entry. Tags and fused reporters are not part of them. Residues count along the entry.
UniProt Q4ACU6: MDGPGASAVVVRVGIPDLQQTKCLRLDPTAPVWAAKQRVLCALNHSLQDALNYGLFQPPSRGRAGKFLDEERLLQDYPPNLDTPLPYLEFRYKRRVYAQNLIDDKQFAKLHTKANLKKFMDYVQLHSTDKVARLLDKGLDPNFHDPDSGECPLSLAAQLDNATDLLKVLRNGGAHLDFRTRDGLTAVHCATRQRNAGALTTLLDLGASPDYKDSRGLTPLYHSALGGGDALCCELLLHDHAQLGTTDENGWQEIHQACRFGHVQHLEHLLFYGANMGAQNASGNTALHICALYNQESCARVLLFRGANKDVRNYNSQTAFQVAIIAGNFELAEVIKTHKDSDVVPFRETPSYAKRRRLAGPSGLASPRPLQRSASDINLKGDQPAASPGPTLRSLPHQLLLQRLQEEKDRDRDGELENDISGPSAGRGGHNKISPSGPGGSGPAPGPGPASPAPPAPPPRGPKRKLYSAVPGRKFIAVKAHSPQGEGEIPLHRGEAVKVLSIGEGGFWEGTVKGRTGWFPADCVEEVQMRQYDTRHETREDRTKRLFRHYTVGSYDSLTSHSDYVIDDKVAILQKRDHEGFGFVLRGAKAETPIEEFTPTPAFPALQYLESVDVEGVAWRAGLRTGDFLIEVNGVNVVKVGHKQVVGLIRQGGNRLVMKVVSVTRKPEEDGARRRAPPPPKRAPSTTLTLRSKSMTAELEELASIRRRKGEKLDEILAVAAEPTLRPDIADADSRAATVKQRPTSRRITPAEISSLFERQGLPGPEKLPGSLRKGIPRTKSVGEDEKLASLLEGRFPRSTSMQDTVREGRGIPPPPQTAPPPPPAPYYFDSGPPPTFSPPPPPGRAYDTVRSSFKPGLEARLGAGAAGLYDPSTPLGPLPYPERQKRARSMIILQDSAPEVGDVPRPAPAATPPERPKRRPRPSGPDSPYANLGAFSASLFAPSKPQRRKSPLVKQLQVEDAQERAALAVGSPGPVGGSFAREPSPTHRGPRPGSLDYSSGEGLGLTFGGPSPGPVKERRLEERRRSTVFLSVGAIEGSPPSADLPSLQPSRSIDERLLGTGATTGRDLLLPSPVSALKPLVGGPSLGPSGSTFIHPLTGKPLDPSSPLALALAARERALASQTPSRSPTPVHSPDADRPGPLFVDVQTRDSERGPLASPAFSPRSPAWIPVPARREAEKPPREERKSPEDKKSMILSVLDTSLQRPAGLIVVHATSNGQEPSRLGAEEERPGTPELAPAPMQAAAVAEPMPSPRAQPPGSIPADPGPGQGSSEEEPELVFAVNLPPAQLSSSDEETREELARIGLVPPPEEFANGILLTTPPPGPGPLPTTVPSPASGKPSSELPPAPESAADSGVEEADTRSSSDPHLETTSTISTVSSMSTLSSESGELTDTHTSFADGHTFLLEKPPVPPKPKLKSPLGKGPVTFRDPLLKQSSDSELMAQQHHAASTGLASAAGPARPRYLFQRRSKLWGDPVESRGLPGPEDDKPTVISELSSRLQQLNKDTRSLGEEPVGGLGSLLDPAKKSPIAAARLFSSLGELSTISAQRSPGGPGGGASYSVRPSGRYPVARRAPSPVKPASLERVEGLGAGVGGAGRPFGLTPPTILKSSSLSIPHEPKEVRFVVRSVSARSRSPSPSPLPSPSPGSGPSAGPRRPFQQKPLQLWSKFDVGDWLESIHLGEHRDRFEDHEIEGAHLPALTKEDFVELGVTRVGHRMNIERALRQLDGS
UniProt Q01097, residues 27-1482: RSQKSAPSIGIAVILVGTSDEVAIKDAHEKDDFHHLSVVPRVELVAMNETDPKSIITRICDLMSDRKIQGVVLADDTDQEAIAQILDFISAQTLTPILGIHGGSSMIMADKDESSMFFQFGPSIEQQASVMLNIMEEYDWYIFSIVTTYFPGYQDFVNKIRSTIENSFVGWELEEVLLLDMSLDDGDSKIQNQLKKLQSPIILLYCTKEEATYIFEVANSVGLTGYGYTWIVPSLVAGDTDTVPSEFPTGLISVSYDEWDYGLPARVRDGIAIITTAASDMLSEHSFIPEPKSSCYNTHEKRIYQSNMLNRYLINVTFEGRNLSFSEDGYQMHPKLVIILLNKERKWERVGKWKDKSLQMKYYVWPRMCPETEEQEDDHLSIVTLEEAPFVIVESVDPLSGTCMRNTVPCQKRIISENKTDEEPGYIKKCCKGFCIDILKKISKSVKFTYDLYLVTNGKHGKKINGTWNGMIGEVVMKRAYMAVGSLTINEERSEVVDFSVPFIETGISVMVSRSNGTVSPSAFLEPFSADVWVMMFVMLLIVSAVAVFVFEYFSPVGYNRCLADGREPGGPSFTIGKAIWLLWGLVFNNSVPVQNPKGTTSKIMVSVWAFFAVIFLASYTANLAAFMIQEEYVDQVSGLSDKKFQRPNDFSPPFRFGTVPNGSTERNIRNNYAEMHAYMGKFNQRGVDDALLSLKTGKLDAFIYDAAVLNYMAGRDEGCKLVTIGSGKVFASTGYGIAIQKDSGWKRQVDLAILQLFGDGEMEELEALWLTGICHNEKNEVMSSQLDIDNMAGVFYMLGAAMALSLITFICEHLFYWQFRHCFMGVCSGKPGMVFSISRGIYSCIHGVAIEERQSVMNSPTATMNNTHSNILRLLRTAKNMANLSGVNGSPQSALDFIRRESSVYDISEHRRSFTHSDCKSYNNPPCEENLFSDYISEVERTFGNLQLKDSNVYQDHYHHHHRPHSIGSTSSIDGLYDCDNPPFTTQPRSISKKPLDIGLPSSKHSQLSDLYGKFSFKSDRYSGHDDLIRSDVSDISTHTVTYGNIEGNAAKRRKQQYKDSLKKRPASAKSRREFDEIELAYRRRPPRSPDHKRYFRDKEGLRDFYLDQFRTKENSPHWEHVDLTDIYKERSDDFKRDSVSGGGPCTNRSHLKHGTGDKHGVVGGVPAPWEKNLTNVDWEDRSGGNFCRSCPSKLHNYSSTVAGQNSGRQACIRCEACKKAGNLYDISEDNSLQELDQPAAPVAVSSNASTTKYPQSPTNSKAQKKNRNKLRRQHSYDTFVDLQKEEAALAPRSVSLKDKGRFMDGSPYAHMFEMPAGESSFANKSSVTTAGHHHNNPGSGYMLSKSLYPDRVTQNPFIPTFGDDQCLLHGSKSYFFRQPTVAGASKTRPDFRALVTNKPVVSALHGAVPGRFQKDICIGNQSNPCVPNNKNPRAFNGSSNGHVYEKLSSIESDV

Tests used:
Neuro BioID2-SAPAP3 = molecular target: T1, Neuro BioID2-SAPAP3 (UniProt Q6PFD5); test: proximity labelling; Neuro HA-BioID2-SAPAP3 in striatal neurons in vivo; biotin 24 mg/kg for 7 days; NeutrAvidin pull-down, LC-MS/MS; against GFP control; SAINTexpress FDR 0.05
T1 sequence: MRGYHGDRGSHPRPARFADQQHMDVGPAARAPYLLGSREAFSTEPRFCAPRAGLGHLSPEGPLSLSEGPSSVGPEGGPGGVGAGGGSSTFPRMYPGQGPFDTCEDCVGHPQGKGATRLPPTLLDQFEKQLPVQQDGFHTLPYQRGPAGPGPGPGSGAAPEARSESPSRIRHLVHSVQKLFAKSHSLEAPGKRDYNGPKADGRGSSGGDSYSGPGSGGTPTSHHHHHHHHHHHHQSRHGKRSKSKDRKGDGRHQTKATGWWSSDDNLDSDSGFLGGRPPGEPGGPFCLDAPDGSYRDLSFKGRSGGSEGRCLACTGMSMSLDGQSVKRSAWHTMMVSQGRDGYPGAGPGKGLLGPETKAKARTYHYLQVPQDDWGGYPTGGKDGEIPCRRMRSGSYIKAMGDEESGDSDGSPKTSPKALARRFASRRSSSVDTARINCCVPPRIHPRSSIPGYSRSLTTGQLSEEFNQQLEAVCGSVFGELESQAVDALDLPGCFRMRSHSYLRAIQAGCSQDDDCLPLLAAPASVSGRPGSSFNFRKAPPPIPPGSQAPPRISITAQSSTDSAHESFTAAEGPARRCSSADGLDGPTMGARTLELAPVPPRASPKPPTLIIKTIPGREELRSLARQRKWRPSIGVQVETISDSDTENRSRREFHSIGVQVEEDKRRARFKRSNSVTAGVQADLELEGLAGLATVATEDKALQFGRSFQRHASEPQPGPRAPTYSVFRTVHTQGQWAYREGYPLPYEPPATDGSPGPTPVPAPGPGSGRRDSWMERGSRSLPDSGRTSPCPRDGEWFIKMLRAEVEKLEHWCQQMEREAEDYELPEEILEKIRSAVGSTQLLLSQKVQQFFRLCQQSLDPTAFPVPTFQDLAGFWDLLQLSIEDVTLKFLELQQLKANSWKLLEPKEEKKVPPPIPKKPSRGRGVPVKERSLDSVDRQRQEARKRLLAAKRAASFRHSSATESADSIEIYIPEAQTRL

Astro BioID2-SAPAP3 = molecular target: T2, Astro BioID2-SAPAP3 (UniProt Q6PFD5); test: proximity labelling; Astro HA-BioID2-SAPAP3 in striatal astrocytes in vivo; biotin 24 mg/kg for 7 days; NeutrAvidin pull-down, LC-MS/MS; against GFP control; SAINTexpress FDR 0.05
T2 sequence: T1 sequence

AQP4–BioID2, P55088 = molecular target: T3, AQP4–BioID2, P55088; test: proximity labelling; subcompartment BioID2 fusions (AQP4, EZR, GLT1, KIR4.1, CX43) in striatal astrocytes in vivo; biotin 24 mg/kg for 7 days; NeutrAvidin pull-down, LC-MS/MS; log2(FC) > 1 and FDR < 0.05 versus the same protein fused to GFP; conditions: remark: other sources report otherwise
T3 chain: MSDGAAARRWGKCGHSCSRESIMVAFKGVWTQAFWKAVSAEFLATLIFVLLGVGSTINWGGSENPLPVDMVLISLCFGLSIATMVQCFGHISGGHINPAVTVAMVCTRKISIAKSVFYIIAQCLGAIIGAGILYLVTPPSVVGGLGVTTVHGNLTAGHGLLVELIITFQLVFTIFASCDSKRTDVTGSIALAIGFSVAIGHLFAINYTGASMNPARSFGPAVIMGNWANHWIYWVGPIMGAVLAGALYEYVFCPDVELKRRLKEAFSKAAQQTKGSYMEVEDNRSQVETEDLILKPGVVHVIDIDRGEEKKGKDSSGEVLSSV

GLT1–BioID2 = GLT1–BioID2 (UniProt P43006); test: as above

Shank3 (from UniProt Q4ACU6 1-1730)
binding (Neuro BioID2-SAPAP3): binds

Syngap1 (from UniProt F6SEU4 1-1340)
binding (Neuro BioID2-SAPAP3): binds

Grin2b (from UniProt Q01097 27-1482)
binding (Neuro BioID2-SAPAP3): binds

B1: Slc4a4 (protein, UniProt O88343 1-1079)
chain: MEDEAVLDRGASFLKHVCDEEEVEGHHTIYIGVHVPKSYRRRRRHKRKAGHKEKKEKERISENYSDKSDVENADESSSSILKPLISPAAERIRFILGEEDDSPAPPQLFTELDELLAVDGQEMEWKETARWIKFEEKVEQGGERWSKPHVATLSLHSLFELRTCMEKGSIMLDREASSLPQLVEMIADHQIETGLLKPDLKDKVTYTLLRKHRHQTKKSNLRSLADIGKTVSSASRMFSNPDNGSPAMTHRNLTSSSLNDISDKPEKDQLKNKFMKKLPRDAEASNVLVGEVDFLDTPFIAFVRLQQAVMLGALTEVPVPTRFLFILLGPKGKAKSYHEIGRAIATLMSDEVFHDIAYKAKDRHDLIAGIDEFLDEVIVLPPGEWDPTIRIEPPKSLPSSDKRKNMYSGGENVQMNGDTPHDGGHGGGGHGDCEELQRTGRFCGGLIKDIKRKAPFFASDFYDALNIQALSAILFIYLATVTNAITFGGLLGDATDNMQGVLESFLGTAVSGAIFCLFAGQPLTILSSTGPVLVFERLLFNFSKDHNFDYLEFRLWIGLWSAFMCLVLVATDASFLVQYFTRFTEEGFSSLISFIFIYDAFKKMIKLADYYPINSDFKVGYNTHFSCACLPPDPVNLSVSNDTTLAPEDLPTISSTDMYHNVTFDWAYLSKKECVKYGGKLVGNNCDFVPDITLMSFILFLGTYTSSMAMKKFKTSRYFPTTARKLISDFAIILSILIFCVIDALVGVDTPKLIVPSEFKPTSPNRGWFVPPFGGNPWWVCLAAAIPALLVTILIFMDQQITAVIVNRKEHKLKKGAGYHLDLFWVAILMVVCSFMALPWYVAATVISIAHIDSLKMETETSAPGEQPKFLGVREQRVTGTLVFILTGLSVFMAPILKFIPMPVLYGVFLYMGVASLNGVQFMDRLKLLLMPLKHQPDFIYLRHVPLRRVHLFTFLQVLCLALLWILKSTVAAIIFPVMILALVAVRKGMDYLFSQHDLSFLDDVIPEKDKKKKEDEKKKKKKKGSLDSDNDDSDCPYSEKVPSIKIPMDIMEQQPFLSDNKPLDRERSSTFLERHTSC
binding (Astro BioID2-SAPAP3): binds

B2: Dstn (protein, UniProt Q9R0P5 1-165)
chain: MASGVQVADEVCRIFYDMKVRKCSTPEEIKKRKKAVIFCLSADKKCIVVEEGKEILVGDVGATITDPFKHFVGMLPEKDCRYALYDASFETKESRKEELMFFLWAPEQAPLKSKMIYASSKDAIKKKFPGIKHEYQANGPEDLNRTCIAEKLGGSLIVAFEGSPV
binding (Astro BioID2-SAPAP3): binds

B3: Dlg3 (protein, UniProt P70175 1-849)
chain: MHKHQHCCKCPECYEVTRLAALRRLEPPGYGDWQVPDPYGPSGGNGASSGYGGYSSQTLPSQAGATPTPRTKAKLIPTGRDVGPVPPKPVPGKSTPKLNGSGPGWWPECTCTNRDWYEQASPAPLLVNPEALEPSLSVNGSDGMFKYEEIVLERGNSGLGFSIAGGIDNPHVPDDPGIFITKIIPGGAAAMDGRLGVNDCVLRVNEVDVSEVVHSRAVEALKEAGPVVRLVVRRRQPPPETIMEVNLLKGPKGLGFSIAGGIGNQHIPGDNSIYITKIIEGGAAQKDGRLQIGDRLLAVNNTNLQDVRHEEAVASLKNTSDMVYLKVAKPGSIHLNDMYAPPDYASTFTALADNHISHNSSLGYLGAVESKVTYPAPPQVPPTRYSPIPRHMLAEEDFTREPRKIILHKGSTGLGFNIVGGEDGEGIFVSFILAGGPADLSGELRRGDRILSVNGVNLRNATHEQAAAALKRAGQSVTIVAQYRPEEYSRFESKIHDLREQMMNSSMSSGSGSLRTSEKRSLYVRALFDYDRTRDSCLPSQGLSFSYGDILHVINASDDEWWQARLVTPHGESEQIGVIPSKKRVEKKERARLKTVKFHARTGMIESNRDFPGLSDDYYGAKNLKGVTSNTSDSESSSKGQEDAILSYEPVTRQEIHYARPVIILGPMKDRVNDDLISEFPHKFGSCVPHTTRPRRDNEVDGQDYHFVVSREQMEKDIQDNKFIEAGQFNDNLYGTSIQSVRAVAERGKHCILDVSGNAIKRLQQAQLYPIAIFIKPKSIEALMEMNRRQTYEQANKIFDKAMKLEQEFGEYFTAIVQGDSLEEIYNKIKQIIEDQSGHYIWVPSPEKL
binding (Neuro BioID2-SAPAP3): binds

B4: Cnp (protein, UniProt P16330 1-420)
chain: MNTSFTRKSHTFLPKLFFRKMSSSGAKEKPELQFPFLQDEDTVATLHECKTLFILRGLPGSGKSTLARLILEKYHDGTKMVSADAYKIIPGSRADFSEAYKRLDEDLAGYCRRDIRVLVLDDTNHERERLDQLFEMADQYQYQVVLVEPKTAWRLDCAQLKEKNQWQLSADDLKKLKPGLEKDFLPLYFGWFLTKKSSETLRKAGQVFLEELGNHKAFKKELRHFISGDEPKEKLELVSYFGKRPPGVLHCTTKFCDYGKAAGAEEYAQQEVVKRSYGKAFKLSISALFVTPKTAGAQVVLTDQELQLWPSDLDKPSASEGLPPGSRAHVTLGCAADVQPVQTGLDLLDILQQVKGGSQGEAVGELPRGKLYSLGKGRWMLSLTKKMEVKAIFTGYYGKGKPVPIHGSRKGGAMQICTII
binding (Neuro BioID2-SAPAP3): binds

B5: GLT1 (endogenous), P43006 1-572 (protein)
chain: MASTEGANNMPKQVEVRMHDSHLSSDEPKHRNLGMRMCDKLGKNLLLSLTVFGVILGAVCGGLLRLASPIHPDVVMLIAFPGDILMRMLKMLILPLIISSLITGLSGLDAKASGRLGTRAMVYYMSTTIIAAVLGVILVLAIHPGNPKLKKQLGPGKKNDEVSSLDAFLDLIRNLFPENLVQACFQQIQTVTKKVLVAPPSEEANTTKAVISMLNETMNEAPEETKIVIKKGLEFKDGMNVLGLIGFFIAFGIAMGKMGEQAKLMVEFFNILNEIVMKLVIMIMWYSPLGIACLICGKIIAIKDLEVVARQLGMYMITVIVGLIIHGGIFLPLIYFVVTRKNPFSFFAGIFQAWITALGTASSAGTLPVTFRCLEDNLGIDKRVTRFVLPVGATINMDGTALYEAVAAIFIAQMNGVILDGGQIVTVSLTATLASIGAASIPSAGLVTMLLILTAVGLPTEDISLLVAVDWLLDRMRTSVNVVGDSFGAGIVYHLSKSELDTIDSQHRMQEDIEMTKTQSIYDDKNHRESNSNQCVYAAHNSVVIDECKVTLAANGKSADCSVEEEPWKREK
binding (AQP4–BioID2, P55088): binds

B6: hepatic and glial cell adhesion molecule (HepaCAM) (protein, UniProt Q640R3 34-418)
chain: VNITSPVRLIHGTVGKSALLSVQYSSTSSDKPVVKWQLKRDKPVTVVQSIGTEVIGTLRPDYRDRIRLFENGSLLLSDLQLADEGTYEVEISITDDTFTGEKTINLTVDVPISRPQVLVASTTVLELSEAFTLNCSHENGTKPSYTWLKDGKPLLNDSRMLLSPDQKVLTITRVLMEDDDLYSCVVENPISQVRSLPVKITVYRRSSLYIILSTGGIFLLVTLVTVCACWKPSKKSRKKRKLEKQNSLEYMDQNDDRLKSEADTLPRSGEQERKNPMALYILKDKDSSEPDENPATEPRSTTEPGPPGYSVSPPVPGRSPGLPIRSARRYPRSPARSPATGRTHTSPPRAPSSPGRSRSSSRSLRTAGVQRIREQDESGQVEISA
binding (GLT1–BioID2): binds

B7: Slc1a3 (protein, UniProt P56564 1-543)
chain: MTKSNGEEPRMGGRMERLQQGVRKRTLLAKKKVQSLTKEDVKSYLFRNAFVLLTVTAVIVGTILGFALRPYKMSYREVKYFSFPGELLMRMLQMLVLPLIISSLVTGMAALDSKASGKMGMRAVVYYMTTTIIAVVIGIIIVIIIHPGKGTKENMYREGKIVQVTAADAFLDLIRNMFPPNLVEACFKQFKTSYEKRSFKVPIQSNETLLGAVINNVSEAMETLTRIREEMVPVPGSVNGVNALGLVVFSMCFGFVIGNMKEQGQALREFFDSLNEAIMRLVAVIMWYAPLGILFLIAGKIVEMEDMGVIGGQLAMYTVTVIVGLLIHAVIVLPLLYFLVTRKNPWVFIGGLLQALITALGTSSSSATLPITFKCLEENNGVDKRITRFVLPVGATINMDGTALYEALAAIFIAQVNNFDLNFGQIITISITATAASIGAAGIPQAGLVTMVIVLTSVGLPTDDITLIIAVDWFLDRLRTTTNVLGDSLGAGIVEHLSRHELKNRDVEMGNSVIEENEMKKPYQLIAQDNEPEKPVADSETKM
binding (Astro BioID2-SAPAP3): binds

No constants are given. Whether binding was seen depends on the method and setting. In cells and extracts the contact can be indirect. Here binding means that the protein was enriched with, or labelled near, the bait; the list need not be complete.
